Results from the supplement of paper PMC9938546.
Structures can show the parent of a compound that is named as a salt. This is one part of the list. Part of the spread comes from offsets between plates or batches.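 HCT116-GFP is a human colorectal cancer cell line that carries a KRAS mutation, is microsatellite-unstable and always makes green fluorescent protein; the immune cells came from healthy donors. Live-cell imaging of the green signal stood in for cancer cell survival, and activated immune cells alone cut survival to about half.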

System: HCT116-GFP
Assay: HCT116-GFP viability (GFP intensity) relative to untreated HCT116-GFP monoculture control, co-culture with activated PBMCs; higher = less cancer cell killing
Conditions: culture: co-culture with anti-CD3/IL2 activated PBMCs 1:1; 10 µM; 72 h

Structure (SMILES)	HCT116-GFP viability
CC(=O)N(CC(O)CN(C(C)=O)c1c(I)c(C(=O)NCC(O)CO)c(I)c(C(=O)NCC(O)CO)c1I)c1c(I)c(C(=O)NCC(O)CO)c(I)c(C(=O)NCC(O)CO)c1I (stereo not drawn) [Iodixanol]	63.5%
O=C(c1ccccc1)c1ccc2n1CCC2C(=O)O (stereo not drawn) [Ketorolac tromethamine]	69.4%
CCOC(=O)[C@@](C)(N)Cc1ccc(O)c(O)c1 [Methyldopate hydrochloride]	19%
COc1c(N2CCNC(C)C2)c(F)cc2c(=O)c(C(=O)O)cn(C3CC3)c12 (stereo not drawn) [Gatifloxacin]	35.6%
CN1Cc2c(N)cccc2C(c2ccccc2)C1 (stereo not drawn) [Nomifensine maleate]	31.2%
CC(C)(O)c1ccccc1CC[C@@H](SCC1(CC(=O)O)CC1)c1cccc(/C=C/c2ccc3ccc(Cl)cc3n2)c1 [Montelukast]	9.62%
c1ccc(CNc2ncnc3nc[nH]c23)cc1 [Aminopurine, 6-benzyl]	58.4%
NC1CCN(c2nc3c(cc2F)c(=O)c(C(=O)O)cn3-c2ccc(F)cc2F)C1 (stereo not drawn) [Tosufloxacin hydrochloride]	33.6%
COC(=O)Nc1nc2cc([S+]([O-])c3ccccc3)ccc2[nH]1 (stereo not drawn) [Oxfendazol]	9.72%
Cc1cc(N)c2ccccc2[n+]1CCCCCCCCCC[n+]1c(C)cc(N)c2ccccc21 [Dequalinium dichloride]	6.35%
Nc1ccn([C@@H]2CS[C@H](CO)O2)c(=O)n1 [Lamivudine]	29.3%
COc1ccccc1OCC(O)COC(N)=O (stereo not drawn) [Methocarbamol]	25.1%
CO/N=C(\C(=O)N[C@@H]1C(=O)N2C(C(=O)OC(C)OC(C)=O)=C(COC(N)=O)CS[C@H]12)c1ccco1 (stereo partly drawn) [Cefuroxime axetil]	32%
CN1CCC(OC(c2ccccc2)c2ccccc2)CC1 [Diphenylpyraline hydrochloride]	73.8%
O=C(Oc1cccc2cccnc12)c1ccccc1 [Benzoxiquine]	26.2%
Clc1ccc(Nc2nnc(Cc3ccncc3)c3ccccc23)cc1 [Vatalanib]	25.2%
Fc1ccc([C@@H]2CCNC[C@H]2COc2ccc3c(c2)OCO3)cc1 [Paroxetine Hydrochloride]	63.4%
Nc1nc(O)c2ncn(CCC(CO)CO)c2n1 [Penciclovir]	38%
O=c1[nH]cnc2c1ncn2[C@H]1CC[C@@H](CO)O1 [Didanosine]	37.5%
CN(C/C=C/C#CC(C)(C)C)Cc1cccc2ccccc12 [Terbinafine]	18.1%
NCCC[C@H](N)CC(=O)N[C@H]1CNC(=O)[C@H]([C@H]2C[C@H](O)NC(N)=N2)NC(=O)/C(=C/NC(N)=O)NC(=O)[C@H](CO)NC(=O)[C@H](CO)NC1=O [Viomycin sulfate]	12.8%
CN(C)CCCN1c2ccccc2CCc2ccccc21 [Imipramine hydrochloride]	74.4%
NC(CO)C(=O)NNCc1ccc(O)c(O)c1O (stereo not drawn) [Benserazide hydrochloride]	71.3%
O=C1c2cccc3c2[C@H](CCC3)CN1[C@@H]1CN2CCC1CC2 [Palonosetron hydrochloride]	36.9%
NCC[C@H](O)C(=O)N[C@@H]1C[C@H](N)[C@@H](O[C@H]2O[C@H](CN)[C@@H](O)[C@H](O)[C@H]2O)[C@H](O)[C@H]1O[C@H]1O[C@H](CO)[C@@H](O)[C@H](N)[C@H]1O [Amikacin hydrate]	44.2%

Structure (SMILES)	HCT116-GFP viability
CC(C)CN(C[C@@H](O)[C@H](Cc1ccccc1)NC(=O)O[C@H]1CO[C@H]2OCC[C@H]21)S(=O)(=O)c1ccc(N)cc1 [Darunavir]	54.1%
OCCN1C[C@H](O)[C@@H](O)[C@H](O)[C@H]1CO [Miglitol]	35.2%
CC(C)C(=O)Nc1ccc([N+](=O)[O-])c(C(F)(F)F)c1 [Flutamide]	42.7%
Cn1cnc([N+](=O)[O-])c1Sc1ncnc2[nH]cnc12 [Azathioprine]	28.1%
C[C@@]1(O)CCOC(=O)C1 [Mevalonic-D, L acid lactone]	74.7%
COCC(=O)Nc1c(I)c(C(=O)NCC(O)CO)c(I)c(C(=O)N(C)CC(O)CO)c1I (stereo not drawn) [Iopromide]	75.4%
O=C(O)CCCC[C@@H]1SC[C@@H]2NC(=O)N[C@@H]21 [Biotin]	45%
CC1COc2c(N3CCN(C)CC3)c(F)cc3c(=O)c(C(=O)O)cn1c23 (stereo not drawn) [Ofloxacin]	58.5%
CC(=O)SCC(Cc1ccccc1)C(=O)NCC(=O)OCc1ccccc1 (stereo not drawn) [Racecadotril]	56.4%
C[C@H](CCC(=O)O)[C@H]1CC[C@H]2[C@@H]3CC[C@@H]4C[C@H](O)CC[C@]4(C)[C@H]3CC[C@]12C [Lithocholic acid]	65.5%
COC(=O)C1=C(C)NC(C)=C(C(=O)OC(C)C)C1c1cccc2nonc12 (stereo not drawn) [Isradipine]	31.5%
CC(C)NCC(O)c1cc(O)cc(O)c1 (stereo not drawn) [Metaproterenol sulfate, orciprenaline sulfate]	53.7%
O=C(O)CN(CCN(CC(=O)O)CC(=O)O)CCN(CC(=O)O)CC(=O)O [Pentetic acid]	71.7%
C#CCN(C)CCCOc1ccc(Cl)cc1Cl [Clorgyline hydrochloride]	57.2%
Cn1c(=O)c2c(ncn2CCO)n(C)c1=O [Etofylline]	25.9%
COc1ccccc1N1CCN(CCCNc2cc(=O)n(C)c(=O)n2C)CC1 [Urapidil hydrochloride]	68.2%
COc1nc(N)nc2c1ncn2[C@@H]1O[C@H](CO)[C@@H](O)[C@@H]1O [Nelarabine]	40.3%
CCC(=O)OCC(=O)[C@@]1(OC(=O)CC)[C@@H](C)C[C@H]2[C@@H]3CCC4=CC(=O)C=C[C@]4(C)[C@@]3(Cl)[C@@H](O)C[C@@]21C [Beclomethasone dipropionate]	80.6%
CCN(CC)Cc1cc(Nc2ccnc3cc(Cl)ccc23)ccc1O [Amodiaquin dihydrochloride dihydrate]	48.5%
Clc1ccc(C(Cn2ccnc2)OCc2csc3c(Cl)cccc23)c(Cl)c1 (stereo not drawn) [Sertaconazole nitrate]	21%
CC(=O)OCC1=C(C(=O)O)N2C(=O)[C@@H](NC(=O)Cc3cccs3)[C@H]2SC1 [Cephalothin sodium salt]	75.6%
CCN(CC)CCNC(=O)COc1ccc(OC)cc1 [Mefexamide hydrochloride]	46%
CC1(C)S[C@@H]2[C@H](NC(=O)Cc3ccccc3)C(=O)N2[C@H]1C(=O)O [Benzylpenicillin sodium]	40.5%
CC1(C)S[C@@H]2[C@H](NC(=O)Cc3ccccc3)C(=O)N2[C@H]1C(=O)O [Benzathine benzylpenicillin]	41.2%
CCCCc1nc(Cl)c(CO)n1Cc1ccc(-c2ccccc2-c2nnn[nH]2)cc1 [Losartan]	37.7%

Four entries from above, bar-delimited:
Structure (SMILES) | HCT116-GFP viability
OCCN1C[C@H](O)[C@@H](O)[C@H](O)[C@H]1CO [Miglitol] | 35.2%
CC1COc2c(N3CCN(C)CC3)c(F)cc3c(=O)c(C(=O)O)cn1c23 (stereo not drawn) [Ofloxacin] | 58.5%
C[C@H](CCC(=O)O)[C@H]1CC[C@H]2[C@@H]3CC[C@@H]4C[C@H](O)CC[C@]4(C)[C@H]3CC[C@]12C [Lithocholic acid] | 65.5%
O=C(O)CN(CCN(CC(=O)O)CC(=O)O)CCN(CC(=O)O)CC(=O)O [Pentetic acid] | 71.7%

(list continues)

Structure (SMILES)	HCT116-GFP viability
O=C1NCCN1CCN1CCC(c2cn(-c3ccc(F)cc3)c3ccc(Cl)cc23)CC1 [Sertindole]	4.96%
O=C1CCC(N2C(=O)c3ccccc3C2=O)C(=O)N1 (stereo not drawn) [Thalidomide]	51.5%
O=C1OC(CN2CCOCC2)CN1/N=C/c1ccc([N+](=O)[O-])o1 (stereo not drawn) [Furaltadone hydrochloride]	60.1%
CNCCCN1c2ccccc2CCc2ccccc21 [Desipramine hydrochloride]	64%
CCC(C)n1ncn(-c2ccc(N3CCN(c4ccc(OCC5COC(Cn6cncn6)(c6ccc(Cl)cc6Cl)O5)cc4)CC3)cc2)c1=O (stereo not drawn) [Itraconazole]	33.5%
Cc1cccc(Nc2ccccc2C(=O)O)c1C [Mefenamic acid]	43.1%
C[n+]1ccccc1/C=N/O [Pralidoxime chloride]	72.1%
O=C(O)CCNC(=O)c1ccc(/N=N/c2ccc(O)c(C(=O)O)c2)cc1 [Balsalazide Sodium]	86.5%
COC(=O)C1=C(C)NC(C)=C(C(=O)OCCN(C)Cc2ccccc2)C1c1cccc([N+](=O)[O-])c1 (stereo not drawn) [Nicardipine hydrochloride]	27.3%
CN1CCN(c2c(F)cc3c(=O)c(C(=O)O)cn4c3c2SCC4)CC1 [Rufloxacin]	27.7%
COC(=O)C1=C(C)NC(C)=C(C(=O)OCC(C)C)C1c1ccccc1[N+](=O)[O-] (stereo not drawn) [Nisoldipine]	15.8%
NC(=O)NC1NC(=O)NC1=O (stereo not drawn) [Allantoin]	36.8%
CN(C)CCOC(c1ccc(Cl)cc1)c1ccccn1 (stereo not drawn) [Carbinoxamine maleate salt]	58%
O=C1CCc2ccc(OCCCCN3CCN(c4cccc(Cl)c4Cl)CC3)cc2N1 [Aripiprazole]	31.1%
Cc1ccccc1C(OCCN(C)C)c1ccccc1 (stereo not drawn) [Orphenadrine hydrochloride]	51.4%
O=C1C(O)=C([C@H]2CC[C@H](c3ccc(Cl)cc3)CC2)C(=O)c2ccccc21 [Atovaquone]	36.9%
CC(C)NCC(O)c1ccc(O)c(O)c1 (single isomer, unassigned; (-)) [(-)-Isoproterenol hydrochloride]	2.83%
CN1CCOC(c2ccccc2)c2ccccc2C1 (stereo not drawn) [Nefopam hydrochloride]	52.1%
CN1CCC(=C2c3ccccc3CCc3sccc32)CC1 [Pizotifen malate]	59.8%
CCN(CC)CCOc1ccc(C(=C(Cl)c2ccccc2)c2ccccc2)cc1 [Clomiphene citrate (Z,E)]	7.23%
CN(C)[C@@H]1C(O)=C(C(=O)NCNCCCC[C@H](N)C(=O)O)C(=O)[C@@]2(O)C(O)=C3C(=O)c4c(O)cccc4[C@@](C)(O)[C@H]3C[C@@H]12 [Lymecycline]	42.6%
CCCCNc1ccc(C(=O)OCCN(C)C)cc1 [Tetracaïne hydrochloride]	40.4%
COc1ccccc1N1CCN(CCCCNC(=O)c2ccc3ccccc3c2)CC1	48.7%
